Measured values published in the supplement of paper PMC10849652.
The other results are listed elsewhere or left out.

Chains of the proteins cited; added tags and fusions are not shown. Lines headed by an entry give the natural chain unless they say otherwise; changes in a name come on top.
UniProt Q8TEH3: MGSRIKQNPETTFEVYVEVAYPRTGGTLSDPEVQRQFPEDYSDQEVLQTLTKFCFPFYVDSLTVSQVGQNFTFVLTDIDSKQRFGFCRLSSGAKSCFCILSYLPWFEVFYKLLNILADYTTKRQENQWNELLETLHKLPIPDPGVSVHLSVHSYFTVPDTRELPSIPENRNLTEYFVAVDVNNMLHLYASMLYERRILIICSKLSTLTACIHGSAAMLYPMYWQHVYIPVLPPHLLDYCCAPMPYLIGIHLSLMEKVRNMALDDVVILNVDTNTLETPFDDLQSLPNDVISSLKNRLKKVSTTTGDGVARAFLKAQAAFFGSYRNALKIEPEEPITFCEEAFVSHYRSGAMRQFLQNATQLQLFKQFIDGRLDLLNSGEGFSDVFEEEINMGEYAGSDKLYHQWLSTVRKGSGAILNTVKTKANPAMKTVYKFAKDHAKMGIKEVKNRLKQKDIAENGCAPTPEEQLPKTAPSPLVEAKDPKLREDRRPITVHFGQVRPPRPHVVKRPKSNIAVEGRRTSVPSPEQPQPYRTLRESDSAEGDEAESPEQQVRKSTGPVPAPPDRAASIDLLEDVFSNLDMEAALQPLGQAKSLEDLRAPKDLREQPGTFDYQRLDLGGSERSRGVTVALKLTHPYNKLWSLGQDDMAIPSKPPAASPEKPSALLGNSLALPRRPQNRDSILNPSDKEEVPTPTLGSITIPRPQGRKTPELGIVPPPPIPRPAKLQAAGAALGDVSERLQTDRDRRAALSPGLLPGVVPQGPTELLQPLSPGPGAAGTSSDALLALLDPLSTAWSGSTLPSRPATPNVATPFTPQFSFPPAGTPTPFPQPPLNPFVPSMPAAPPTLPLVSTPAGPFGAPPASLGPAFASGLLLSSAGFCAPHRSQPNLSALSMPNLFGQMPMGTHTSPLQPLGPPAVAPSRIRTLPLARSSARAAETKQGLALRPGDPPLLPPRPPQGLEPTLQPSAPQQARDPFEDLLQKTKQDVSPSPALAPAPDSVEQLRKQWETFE
UniProt Q6ICB0: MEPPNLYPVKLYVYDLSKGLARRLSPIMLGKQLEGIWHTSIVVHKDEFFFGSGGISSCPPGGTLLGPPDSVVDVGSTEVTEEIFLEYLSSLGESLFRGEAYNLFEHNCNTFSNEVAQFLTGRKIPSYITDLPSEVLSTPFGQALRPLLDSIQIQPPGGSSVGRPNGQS
UniProt P80370: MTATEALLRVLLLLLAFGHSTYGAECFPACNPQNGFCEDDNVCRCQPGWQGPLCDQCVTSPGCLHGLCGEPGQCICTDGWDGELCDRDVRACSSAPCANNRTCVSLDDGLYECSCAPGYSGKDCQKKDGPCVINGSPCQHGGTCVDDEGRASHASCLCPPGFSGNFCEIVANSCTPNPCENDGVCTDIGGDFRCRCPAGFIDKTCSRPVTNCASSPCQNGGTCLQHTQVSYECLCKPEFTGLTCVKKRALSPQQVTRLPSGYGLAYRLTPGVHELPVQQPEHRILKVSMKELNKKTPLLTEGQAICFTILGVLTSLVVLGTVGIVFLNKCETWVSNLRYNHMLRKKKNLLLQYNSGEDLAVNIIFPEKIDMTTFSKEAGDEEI
UniProt Q7L5Y6, whole entry, looked up: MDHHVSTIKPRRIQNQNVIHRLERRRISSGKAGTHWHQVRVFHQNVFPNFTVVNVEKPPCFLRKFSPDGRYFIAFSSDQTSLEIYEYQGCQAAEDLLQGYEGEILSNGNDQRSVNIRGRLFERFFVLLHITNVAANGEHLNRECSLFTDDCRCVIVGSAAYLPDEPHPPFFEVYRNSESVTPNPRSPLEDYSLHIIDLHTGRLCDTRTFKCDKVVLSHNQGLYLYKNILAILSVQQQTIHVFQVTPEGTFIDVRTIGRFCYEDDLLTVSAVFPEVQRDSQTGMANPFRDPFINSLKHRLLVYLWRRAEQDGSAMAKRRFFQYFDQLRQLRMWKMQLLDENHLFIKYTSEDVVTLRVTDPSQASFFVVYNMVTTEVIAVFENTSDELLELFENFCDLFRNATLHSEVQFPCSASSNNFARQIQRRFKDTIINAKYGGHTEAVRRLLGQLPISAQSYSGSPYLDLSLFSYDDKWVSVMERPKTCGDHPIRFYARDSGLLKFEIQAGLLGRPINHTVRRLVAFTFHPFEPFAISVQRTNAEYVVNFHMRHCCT
UniProt Q9Y222: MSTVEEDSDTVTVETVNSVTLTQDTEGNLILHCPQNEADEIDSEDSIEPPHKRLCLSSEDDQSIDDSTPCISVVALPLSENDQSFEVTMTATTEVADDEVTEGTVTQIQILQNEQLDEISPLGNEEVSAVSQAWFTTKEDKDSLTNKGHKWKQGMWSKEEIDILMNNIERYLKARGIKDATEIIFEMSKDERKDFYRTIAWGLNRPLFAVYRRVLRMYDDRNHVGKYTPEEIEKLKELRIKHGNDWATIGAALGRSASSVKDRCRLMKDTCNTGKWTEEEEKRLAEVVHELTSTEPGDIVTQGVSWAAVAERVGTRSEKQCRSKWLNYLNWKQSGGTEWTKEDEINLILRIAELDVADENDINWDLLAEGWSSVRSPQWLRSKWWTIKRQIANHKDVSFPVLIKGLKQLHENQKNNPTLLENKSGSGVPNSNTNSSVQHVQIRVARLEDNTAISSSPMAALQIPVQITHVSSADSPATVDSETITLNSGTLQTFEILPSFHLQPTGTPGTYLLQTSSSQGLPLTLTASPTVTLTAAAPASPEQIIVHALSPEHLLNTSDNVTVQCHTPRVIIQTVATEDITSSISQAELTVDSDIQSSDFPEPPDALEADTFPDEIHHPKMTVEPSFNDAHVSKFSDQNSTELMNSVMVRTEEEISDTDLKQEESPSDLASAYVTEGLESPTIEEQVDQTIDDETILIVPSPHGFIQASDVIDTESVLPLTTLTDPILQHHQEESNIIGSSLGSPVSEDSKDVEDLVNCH
UniProt O75140: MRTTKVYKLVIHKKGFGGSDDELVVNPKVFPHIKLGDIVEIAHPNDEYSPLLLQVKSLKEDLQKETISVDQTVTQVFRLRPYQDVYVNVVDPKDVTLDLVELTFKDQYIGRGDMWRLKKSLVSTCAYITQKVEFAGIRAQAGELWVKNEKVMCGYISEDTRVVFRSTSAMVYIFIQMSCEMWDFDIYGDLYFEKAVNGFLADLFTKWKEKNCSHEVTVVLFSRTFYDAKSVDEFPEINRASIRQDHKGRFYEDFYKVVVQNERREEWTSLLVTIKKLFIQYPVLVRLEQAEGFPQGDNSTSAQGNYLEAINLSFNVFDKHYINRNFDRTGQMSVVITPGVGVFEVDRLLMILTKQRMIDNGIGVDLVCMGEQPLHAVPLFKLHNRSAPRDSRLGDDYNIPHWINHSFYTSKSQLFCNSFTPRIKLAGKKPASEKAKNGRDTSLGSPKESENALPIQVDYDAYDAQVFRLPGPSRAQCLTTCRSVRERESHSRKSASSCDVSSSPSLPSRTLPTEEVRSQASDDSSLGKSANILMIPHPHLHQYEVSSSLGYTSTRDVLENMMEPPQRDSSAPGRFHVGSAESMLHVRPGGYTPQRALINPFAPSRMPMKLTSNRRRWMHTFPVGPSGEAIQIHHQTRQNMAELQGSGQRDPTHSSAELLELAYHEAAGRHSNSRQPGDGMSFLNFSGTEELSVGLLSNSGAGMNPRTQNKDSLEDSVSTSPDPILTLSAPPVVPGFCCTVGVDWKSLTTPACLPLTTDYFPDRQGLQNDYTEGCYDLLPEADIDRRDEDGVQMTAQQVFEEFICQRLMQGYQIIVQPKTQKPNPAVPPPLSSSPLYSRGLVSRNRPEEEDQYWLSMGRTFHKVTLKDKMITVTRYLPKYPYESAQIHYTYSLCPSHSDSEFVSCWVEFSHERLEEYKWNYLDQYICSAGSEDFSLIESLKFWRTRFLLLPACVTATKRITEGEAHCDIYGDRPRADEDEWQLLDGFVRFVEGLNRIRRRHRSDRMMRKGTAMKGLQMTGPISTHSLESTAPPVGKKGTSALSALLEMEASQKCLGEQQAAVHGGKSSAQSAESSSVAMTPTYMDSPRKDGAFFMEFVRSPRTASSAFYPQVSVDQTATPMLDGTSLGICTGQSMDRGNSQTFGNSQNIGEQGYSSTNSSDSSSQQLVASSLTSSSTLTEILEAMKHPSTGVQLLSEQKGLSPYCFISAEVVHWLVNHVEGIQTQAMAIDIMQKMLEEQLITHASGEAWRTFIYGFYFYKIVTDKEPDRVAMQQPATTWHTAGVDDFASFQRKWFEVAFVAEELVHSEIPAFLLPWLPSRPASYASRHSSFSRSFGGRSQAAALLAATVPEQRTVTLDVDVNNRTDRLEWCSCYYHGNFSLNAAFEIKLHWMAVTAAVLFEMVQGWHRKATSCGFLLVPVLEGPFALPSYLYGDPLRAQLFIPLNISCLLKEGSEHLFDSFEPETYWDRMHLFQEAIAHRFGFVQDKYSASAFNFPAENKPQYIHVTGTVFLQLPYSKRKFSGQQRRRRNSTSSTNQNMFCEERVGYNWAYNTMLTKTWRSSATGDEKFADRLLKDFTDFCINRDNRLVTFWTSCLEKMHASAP
UniProt Q13206, whole entry, looked up: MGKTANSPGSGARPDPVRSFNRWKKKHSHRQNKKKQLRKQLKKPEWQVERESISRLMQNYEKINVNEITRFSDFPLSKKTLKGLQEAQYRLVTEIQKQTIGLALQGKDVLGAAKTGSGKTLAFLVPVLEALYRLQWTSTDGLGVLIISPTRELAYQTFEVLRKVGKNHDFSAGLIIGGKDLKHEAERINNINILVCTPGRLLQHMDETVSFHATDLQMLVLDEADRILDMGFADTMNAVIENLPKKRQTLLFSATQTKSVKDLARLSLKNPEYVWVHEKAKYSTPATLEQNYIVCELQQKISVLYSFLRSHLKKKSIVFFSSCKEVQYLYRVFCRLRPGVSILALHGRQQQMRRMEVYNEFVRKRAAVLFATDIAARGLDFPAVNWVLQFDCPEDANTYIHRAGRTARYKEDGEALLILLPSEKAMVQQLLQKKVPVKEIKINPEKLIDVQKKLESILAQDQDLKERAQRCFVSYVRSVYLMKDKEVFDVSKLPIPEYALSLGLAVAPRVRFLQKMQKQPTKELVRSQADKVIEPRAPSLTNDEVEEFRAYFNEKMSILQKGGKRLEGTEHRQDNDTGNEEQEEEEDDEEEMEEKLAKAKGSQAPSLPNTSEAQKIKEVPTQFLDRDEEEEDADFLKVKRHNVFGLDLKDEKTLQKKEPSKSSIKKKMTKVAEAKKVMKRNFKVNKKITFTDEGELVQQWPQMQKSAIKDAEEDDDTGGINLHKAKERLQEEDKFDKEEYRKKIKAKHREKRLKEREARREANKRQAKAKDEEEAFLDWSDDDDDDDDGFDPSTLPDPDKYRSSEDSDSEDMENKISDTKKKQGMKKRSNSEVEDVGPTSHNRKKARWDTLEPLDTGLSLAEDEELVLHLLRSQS
UniProt Q9H4E7, whole entry, looked up: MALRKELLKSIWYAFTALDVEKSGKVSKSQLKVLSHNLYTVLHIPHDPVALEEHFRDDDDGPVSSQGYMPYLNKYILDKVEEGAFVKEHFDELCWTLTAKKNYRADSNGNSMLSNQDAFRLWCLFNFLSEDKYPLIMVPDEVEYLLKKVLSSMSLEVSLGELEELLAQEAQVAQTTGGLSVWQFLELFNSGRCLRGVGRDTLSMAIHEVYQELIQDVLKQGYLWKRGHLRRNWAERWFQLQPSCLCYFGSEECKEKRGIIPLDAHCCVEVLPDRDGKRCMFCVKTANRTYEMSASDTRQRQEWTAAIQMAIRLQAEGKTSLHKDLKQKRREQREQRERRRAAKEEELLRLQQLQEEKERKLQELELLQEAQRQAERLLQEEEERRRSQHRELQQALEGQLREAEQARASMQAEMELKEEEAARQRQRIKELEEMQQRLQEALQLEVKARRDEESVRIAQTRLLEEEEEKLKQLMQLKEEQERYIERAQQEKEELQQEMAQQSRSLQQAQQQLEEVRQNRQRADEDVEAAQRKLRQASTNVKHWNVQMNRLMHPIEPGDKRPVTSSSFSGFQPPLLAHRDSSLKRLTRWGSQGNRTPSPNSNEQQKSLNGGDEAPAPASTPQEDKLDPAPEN

Tests used:
Assay in all cases: log2 fold change, soluble protein after heating vs DMSO (PISA); higher = thermal stabilisation; K562 cells, 10 uM, 30 min; active = over 0.2 and 3.5 SD of the protein, either way, in both replicates (recomputed)
[1] = compound: CC1=CC=C(C=C1)SC2=C3C=C(SC3=CN=C2)C(=O)N
Summary of the method: (§1)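 Aliquots of K562 cells (2×10^6 cells/mL) treated with 10 μM compound for 30 min were heated for 3 min over 48°C-58°C. After pooling and extraction in PBS with 0.5% NP-40 at 4°C, soluble protein from a 21,000xg, 90 min spin was quantified by TMTpro 16plex LC-MS/MS with channel sums equalised. Thermal stability is expressed against control samples, from duplicates, as a log2 fold change.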

[2] = compound: CC1=NC(=CC=C1)C2=C(N=C(N2)C(C)(C)C)C3=CC4=NC=CN=C4C=C3
Summary of the method: as §1

vemurafenib = compound: CCCS(=O)(=O)Nc1ccc(F)c(C(=O)c2c[nH]c3ncc(-c4ccc(Cl)cc4)cc23)c1F [vemurafenib]
Summary of the method: as §1

[3] = compound: CCCS(=O)(=O)Nc1ccc(F)c(C(=O)c2c[nH]c3ncc(Cl)cc23)c1F
Summary of the method: as §1

barasertib = compound: CCN(CCCOc1ccc2c(Nc3cc(CC(=O)Nc4cccc(F)c4)[nH]n3)ncnc2c1)CCOP(=O)(O)O [barasertib]
Summary of the method: as §1

volasertib = compound: CC[C@@H]1C(=O)N(C)c2cnc(Nc3ccc(C(=O)N[C@H]4CC[C@H](N5CCN(CC6CC6)CC5)CC4)cc3OC)nc2N1C(C)C [volasertib]
Summary of the method: as §1

[4] = compound: CN(C)CC(=O)Nc1ccc2[nH]c(=O)c3ccccc3c2c1
Summary of the method: as §1

givinostat = compound: CCN(CC)Cc1ccc2cc(COC(=O)Nc3ccc(C(=O)NO)cc3)ccc2c1 [givinostat]
Summary of the method: as §1

[5] = compound: CC[C@@H]1C(=O)N(C)c2cnc(Nc3ccc(C(=O)NC4CCN(C)CC4)cc3OC)nc2N1C1CCCC1
Summary of the method: as §1

[6] = compound: CCn1c(C(=O)N(C2CC2)C2CC2)cc2c3c(ncn3C)c(Nc3cc(C)n(C)n3)nc21
Summary of the method: as §1

rosiglitazone = compound: CN(CCOC1=CC=C(C=C1)C[C@H]2C(=O)NC(=O)S2)C3=CC=CC=N3 (racemic) [rosiglitazone]
Summary of the method: as §1

[7] = compound: CN1C2=C(C3=C1C(=O)N(N=C3)CC4=CC(=CC=C4)N)SC(=C2)S(=O)C
Summary of the method: as §1

Nexturastat A = compound: CCCCN(Cc1ccc(C(=O)NO)cc1)C(=O)Nc1ccccc1 [Nexturastat A]
Summary of the method: as §1

epoxomicin = compound: CC[C@H](C)[C@@H](C(=O)N[C@@H]([C@@H](C)O)C(=O)N[C@@H](CC(C)C)C(=O)[C@]1(CO1)C)NC(=O)[C@H]([C@@H](C)CC)N(C)C(=O)C [epoxomicin]
Summary of the method: as §1

[8] = compound: CC1=C(C=C(C=C1)NC(=O)C2=CC(=CC=C2)N(C)C)NC(=O)C3=CC=C(C=C3)O
Summary of the method: as §1

[9] = compound: CCCc1cc(C)[nH]c(=O)c1CNC(=O)c1cc(-c2ccnc(N3CCN(C)CC3)c2)cc2c1cnn2C(C)C
Summary of the method: as §1

[10] = compound: CC1=C(C=C(C=C1)NC(=O)C2=CC(=CC=C2)C(C)(C)C#N)NC3=CC4=C(C=C3)N=CN(C4=O)C
Summary of the method: as §1

[11] = compound: CCn1cc(-c2ccnc3[nH]c(-c4cccc(CN(C)C)c4)cc23)c(-c2ccc(NC(=O)N(C)C)cc2)n1
Summary of the method: as §1

[12] = compound: CN1CCC(CNc2ccc3ncc(-c4cccc(OC(F)(F)F)c4)n3n2)CC1
Summary of the method: as §1

[13] = compound: CC[C@H](C)N1C=C(C2=C(C=C(C=C21)C3=CN=C(C=C3)N4CCNCC4)C(=O)NCC5=C(C=C(NC5=O)C)C)C
Summary of the method: as §1

Measured: log2 fold change

DENND1A isoform 6 (UniProt Q8TEH3)
active: volasertib -0.856
inactive: [1] 0.025 | [2] -0.009 | vemurafenib -0.119 | [3] 0.114 | barasertib 0.293 | [4] 0.112

DESI1 (UniProt Q6ICB0)
inactive: [1] -0.016 | vemurafenib -0.182 | [3] -0.1 | givinostat 0.06 | barasertib 0.201 | [5] -0.078 | volasertib -0.136 | [6] 0.1 | [4] -0.15 | rosiglitazone -0.006 | [7] -0.029

DLK1 (UniProt P80370)
inactive: [2] -0.033 | Nexturastat A -0.003 | vemurafenib -0.026 | epoxomicin 0.012 | [4] -0.016 | [7] 0.127
active: [5] 0.43

DDX39B (UniProt H0Y400)
inactive: Nexturastat A -0.071 | givinostat 0.066 | epoxomicin -0.141 | [6] 0.045

DET1 isoform 2 (UniProt Q7L5Y6)
inactive: [8] -0.321 | [1] -0.254 | [2] -0.048 | [3] 0.024 | [9] -0.125 | volasertib -0.28

DMTF1 (UniProt Q9Y222)
inactive: [10] -0.05 | [1] 0.02 | vemurafenib -0.125 | [3] -0.048 | volasertib -0.136 | [11] -0.455 | [4] 0.038 | [7] 0 | [12] -0.228

DEPDC5 (UniProt O75140)
inactive: [2] -0.095 | [7] -0.154

DNAH10 (UniProt Q8IVF4)
inactive: [10] -0.034 | [2] -0.114 | Nexturastat A 0.434 | vemurafenib -0.067 | [9] -0.269 | givinostat 0.307 | barasertib 0.014 | [5] 0.066 | [13] -0.146 | epoxomicin 0.072 | [11] -0.183 | [4] -0.008 | [7] 0 | [12] 0.006

DDX10 (UniProt Q13206)
inactive: givinostat 0.207 | [6] 0.005 | [7] 0.147

Quoted from the listing (2 entries):
DET1 isoform 2 (UniProt Q7L5Y6)
inactive: [8] -0.321 | [1] -0.254 | [2] -0.048 | [3] 0.024 | [9] -0.125 | volasertib -0.28

DMTF1 (UniProt Q9Y222)
inactive: [10] -0.05 | [1] 0.02 | vemurafenib -0.125 | [3] -0.048 | volasertib -0.136 | [11] -0.455 | [4] 0.038 | [7] 0 | [12] -0.228

Carrying on.

DEF6 (UniProt Q9H4E7)
inactive: [8] -0.177 | [2] -0.333 | Nexturastat A 0.41 | [9] 0.044 | epoxomicin -0.131
